The target of this data set is JUN (3xGluGlu-JUN-His6) (UniProt P05412). The data set can be described thus: EMSA. As to conditions: 50 nM DNA, 20 mM Tris/HCl pH 7.4, 40 mM KCl, 5 mM MgCl2, 5% glycerol, 1 h at 37 °C, 6% PAGE in 0.25x TBE, recombinant protein, protein details: N-terminal 3xGluGlu, label: 5'-Cy5 on upper strand. On the technique in general: A gel shift assay detects complexes by their altered migration in electrophoresis.

Amino acid sequences for entries named in this document (tags omitted).
UniProt P05412, whole entry: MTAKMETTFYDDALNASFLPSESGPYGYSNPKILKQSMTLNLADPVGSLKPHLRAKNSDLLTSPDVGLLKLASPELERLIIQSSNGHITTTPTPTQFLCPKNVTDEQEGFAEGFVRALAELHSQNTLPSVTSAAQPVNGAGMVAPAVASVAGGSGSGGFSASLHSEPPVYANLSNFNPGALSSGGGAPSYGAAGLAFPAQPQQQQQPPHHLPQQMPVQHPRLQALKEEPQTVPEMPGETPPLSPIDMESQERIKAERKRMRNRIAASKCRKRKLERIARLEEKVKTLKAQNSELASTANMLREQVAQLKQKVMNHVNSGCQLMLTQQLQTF

Construct, isoform or probe ends are uncertain for at least one entry. Weaker means in comparison with the reference protein, sequence or condition of that experiment. At least one verdict rests on a figure or table, not on a statement of the authors.

With “AAGAGACCAAAGGAATGAGTCATTGGAAATGCTGAGA (double strand) [JUN site 37mer, unmethylated]”, the binding result is “binds”.

Consider “AAGAGACCAAAGGAATGAGTCATTGGAAATGCTGAGA (double strand) [JUN site 37mer, m6dA in both strands]”, for which the binding result (m6dA in both strands, N6-methyl-dA at position 18 of upper strand and position 18 of lower strand) was “binds more weakly”.
